These are yes or no findings as the source states them, for the method shown. For some of these results: Binding can be weak; no strength is given. For some of these results: Tags and fused reporters may be left off the sequences shown. For some of these results: In cells and extracts the contact can be indirect.
Legend:
[1] = target: T1, CT584-HA (Chlamydia trachomatis L2/434) (UniProt O84588); test: co-IP; reverse IP: lysates of Y. enterocolitica ΔHOPEMT co-expressing Myc-tagged substrate and HA-tagged chaperone, grown in non-secreting conditions and also in T3S-inducing conditions (without Ca2+); IP with mouse anti-HA (HA-7) on Protein G agarose; blot with anti-Myc
T1 sequence: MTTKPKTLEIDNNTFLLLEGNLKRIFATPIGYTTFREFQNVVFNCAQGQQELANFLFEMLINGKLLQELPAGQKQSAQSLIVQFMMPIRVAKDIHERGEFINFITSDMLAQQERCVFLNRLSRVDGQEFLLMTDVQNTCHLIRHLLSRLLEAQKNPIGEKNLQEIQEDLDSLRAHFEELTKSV

[2] = target: CT620 (Chlamydia trachomatis L2/434); test: two-hybrid; bacterial adenylate cyclase two-hybrid (BACTH) in Cya-deficient E. coli BTH101; T18 and T25 fusions; blue colonies on LB with IPTG and X-gal, 24 h at 28°C, then β-galactosidase activity with ONPG; Fig. 1B and 1C
[3] = target: CT082 (Chlamydia trachomatis L2/434); test: as above
[4] = target: CT619 (Chlamydia trachomatis L2/434); test: as above
[5] = target: CT621 (Chlamydia trachomatis L2/434); test: as above
[6] = target: CT711 (Chlamydia trachomatis L2/434); test: as above
[7] = target: CT695 (Chlamydia trachomatis L2/434); test: as above
[8] = target: CT712 (Chlamydia trachomatis L2/434); test: as above
[9] = target: GST-CT082_(201–560) (Chlamydia trachomatis L2/434); test: far-Western, overlay or dot blot; extracts of E. coli expressing GST fusions resolved by SDS-PAGE and blotted on nitrocellulose; membrane probed with 1.2 µg purified (6x)His-CT584 in 20 mM HEPES pH 7.5, 50 mM KCl, 10 mM MgCl2, 1 mM DTT, 0.1% Nonidet P-40, 16 h at 4°C; detection with anti-His; only the binder purified
[10] = target: GST-CT082_(1–200) (Chlamydia trachomatis L2/434); test: as above
[11] = target: GST-CT082_(101–560) (Chlamydia trachomatis L2/434); test: as above
[12] = target: GST-CT082_(1–100) (Chlamydia trachomatis L2/434); test: as above
[13] = target: GST-CT082 (Chlamydia trachomatis L2/434); test: as above
[14] = target: GST-CT082_(330–450) (Chlamydia trachomatis L2/434); test: as above
[15] = target: CT082-Myc (Chlamydia trachomatis L2/434); test: co-IP; lysates of Y. enterocolitica ΔHOPEMT co-expressing Myc-tagged substrate and HA-tagged chaperone, grown in non-secreting conditions (5 mM Ca2+); IP with mouse anti-Myc (9E10) on Protein G agarose, 2 h at 4°C; washes in 20 mM Tris-HCl pH 8, 150 mM NaCl, 1% Triton X-100; blot with anti-HA

CT082-Myc (Chlamydia trachomatis L2/434)
binding [1]: binds

CT695-Myc (Chlamydia trachomatis L2/434)
binding [1]: no binding

B1: CT584 (protein, UniProt O84588 1-183)
chain: T1 sequence
binding [2]: no binding
binding [3]: binds
binding [4]: no binding
binding [5]: no binding
binding [6]: no binding
binding [7]: no binding
binding [8]: no binding

B2: (6x)His-CT584 (protein, UniProt O84588 1-183)
chain: T1 sequence
binding [9]: binds
binding [10]: no binding
binding [11]: binds
binding [12]: no binding
binding [13]: binds
binding [14]: binds

B3: CT584-HA (protein, UniProt O84588 1-183)
chain: T1 sequence
binding [15]: binds

Reference: article PMC3576375
